In article PMC10163288:
Some of the results follow.

B1: il10ra_site1_sap_18_mot_HHH_b1_04015_af2_000000074_0001_1_17_H_._HHH_b1_07192_0001_0000100001_0000001_0_0001 (protein)
chain: SSSSSEEEEEIEELLEEAERLYKEGDPEEAIRLLLKATQLAIHAKNAELLRKVWRVFKELSSSSS
B2: il10ra_site1_normal_mot_HHH_b1_00456_000000263_0001_1_17_H_._HHH_b2_05371_0001_0000100004_0000001_0_af2pred_0001 (protein)
chain: SSSSSEIEEEVERLLEEAKHIEDPHERWEVLLKAFLLALKNNDEELKEEVKKVAKELTEGSSSSS
B3: il10ra_site1_sap_29_mot_HHH_b1_05426_000000183_0001_42_56_H_._HHH_b1_07722_af2_0001_0000100004_0000001_0_0001 (protein)
chain: SSSSSEEERVEELLEEVEELKKEGDEEEAIRVLQEAVRLAHQISDEELLREIWRLAKELGSSSSS
B4: il10ra_site1_normal_mot_HHH_b1_05357_000000034_0001_23_39_H_._HHH_b2_01646_0001_0000500028_0000001_0_af2pred_0001 (protein)
chain: SSSSSDEEEIREEVERLLEEAKHVSEHESAYLLIRAYALAYRGNDPELEELVKEVAIKLVSSSSS
B5: il10ra_site1_normal_mot_HHH_b1_06195_000000223_0001_1_19_H_._HHH_b1_03551_0001_0000100010_0000001_0 (protein)
chain: SSSSSQEYSREIYELLREAARLDSEGNPEEARKVLEEAIELAEEGGNLTLLFTLRILERLISSSS
B6: il10ra_site1_normal_mot_HHH_b1_04693_000000238_0001_19_36_H_._HHH_b2_06085_af2_0001_0000400011_0000001_0 (protein)
chain: SSSSSDQELYELIRELIELLLEGDEEKIEKLEEEIEKLAEELNNEVLLFSARAARRLQRKSSSSS
B7: il10ra_site1_sap_14_mot_HHH_b2_05343_000000235_0001_19_35_H_._HHH_b2_06220_0001_0000300034_0000001_0_0001_af2pred_0001 (protein)
chain: SSSSSSSENEEVAELLREAAQIEDKEEARKIVEEALELAEELGNKLLALIAKFVLKRLSSSSSSS
B8: il10ra_site1_normal_mot_39a7b8d0c4c3fc04bafbda6ce6101d3a_0001_1_af2_000000014_0001_34_48_H_._HHH_b1_06183_0001_0000200011_0000001_0_af2pred_0001 (protein)
chain: SSSSSDKEVAHILLEVLRLIREGDEEEAERLLEEAQRLAEEANNPELRLLVELVEAQLRSSSSSS
B9: il10ra_site1_sap_15_mot_HHH_b1_00682_000000211_0001_1_20_H_._HHH_b1_01534_0001_0000100001_0000002_0_0001 (protein)
chain: SSSSDLEERIEELEEELREALERGDMETALRLLQELLRLAFWTSDEELMHRLWRIARELASSSSS
B10: il10ra_site1_sap_19_mot_HHH_b2_00230_000000227_0001_1_19_H_._HHH_b1_00716_0001_0000100003_0000001_0_0001 (protein)
chain: SSSSSSVEELAEEAEKLAEERGDEHAKELVRAIKRLAEQGILDPEFAKLSLELLIEELRESSSSS
B11: il10ra_site1_sap_19_mot_HHH_b2_03565_000000130_0001_23_39_H_._HHH_b2_05873_0001_0000600060_0000001_0_0001_af2pred_0001 (protein)
chain: SSSSDEIAEDTARLALRAVELAGDERAKERARHLVELAIEQAKDPEVQRLLEEILERLEELSSSS
B12: il10ra_site1_normal_mot_3f97b56ee9d4307c590b2d1c156a89aa_0001_af2_000000000_0001_36_49_H_._HHH_b1_08226_af2_0001_0000400016_0000001_0 (protein)
chain: SSSSDELYEFLREVFRELDEAHRRNDPELFEEIYEEARRELEELGDEYAVALLESLFRRLSSSSS
B13: il10ra_site1_normal_mot_HHH_b2_02537_000000065_0001_1_20_H_._HHH_b1_01288_0001_0000200022_0000001_0 (protein)
chain: SSSSSTDEEFEEVKRLIKLLAEARSEEERREIEELMEELQEHVDEIFRFALEHFLRLQRSSSSSS
B14: il10ra_site1_normal_mot_HHH_b1_05056_000000217_0001_1_20_H_._HHH_b2_02194_0001_0000700035_0000001_0 (protein)
chain: SSSSSSSSVEEEVEELLEEAKHVDPEEAARLLAEALRVAYEGKNEELLKEIWEVVRELSSSSSSS
B15: il10ra_site1_normal_mot_HHH_b1_08697_af2_000000298_0001_1_18_H_._HHH_b1_07925_0001_0000300029_0000001_0_af2pred_dldesign_0_af2pred (protein)
chain: SSSSKEKIKKAIETLLDYARLAAAQGRPDEARRLLESARYLAKKAGDEDLLKEIEDLLAAISSSS
B16: il10ra_site1_sap_10_mot_HHH_b2_04057_000000065_0001_1_20_H_._HHH_b1_02339_af2_0001_0000200019_0000002_0_0001 (protein)
chain: SSSSSEEEEEIRELLEELERLLREGDREEAMKVAHRILRLIARLGNAELLELLWRLLHEWLSSSS
B17: il10ra_site1_normal_mot_HHH_b2_01310_000000089_0001_41_55_H_._HHH_b1_01638_0001_0000100004_0000001_0 (protein)
chain: SSSSDKEELEELLEELEELLHTDHEEFVEVAQEAVRHAFELGDAEVLHLLWELVQRLRELSSSSS
B18: il10ra_site1_normal_mot_HHH_b2_04912_000000028_0001_1_20_H_._HHH_b1_04441_0001_0000400046_0000001_0 (protein)
chain: SSSSDEEREELLRLIREIFRLLLRGNPEEAREVLKELEELAEQVGDEAVKKAVRILEEAASSSSS

Molecular target: il10ra, Q13651
Assay: yeast display titration

Binder	apparent Kd
B1	inactive: no binding seen
B2	inactive: no binding seen
B3	inactive: no binding seen
B4	inactive: no binding seen
B5	inactive: no binding seen
B6	inactive: no binding seen
B7	inactive: no binding seen
B8	inactive: > 149 nM
B9	inactive: no binding seen
B10	inactive: no binding seen
B11	inactive: no binding seen
B12	inactive: no binding seen
B13	inactive: no binding seen
B14	inactive: no binding seen
B15	inactive: no binding seen
B16	inactive: no binding seen
B17	inactive: no binding seen
B18	inactive: no binding seen

Exported comma-delimited: part of the list above.
Binder,apparent Kd
B4,inactive: no binding seen
B5,inactive: no binding seen
